Sequences and labels used below:
B1: SYNCRIP (protein, UniProt Q7TMK9 1-623)
chain: MATEHVNGNGTEEPMDTTSAVIHSENFQTLLDAGLPQKVAEKLDEIYVAGLVAHSDLDERAIEALKEFNEDGALAVLQQFKDSDLSHVQNKSAFLCGVMKTYRQREKQGTKVADSSKGPDEAKIKALLERTGYTLDVTTGQRKYGGPPPDSVYSGQQPSVGTEIFVGKIPRDLFEDELVPLFEKAGPIWDLRLMMDPLTGLNRGYAFVTFCTKEAAQEAVKLYNNHEIRSGKHIGVCISVANNRLFVGSIPKSKTKEQILEEFSKVTEGLTDVILYHQPDDKKKNRGFCFLEYEDHKTAAQARRRLMSGKVKVWGNVGTVEWADPIEDPDPEVMAKVKVLFVRNLANTVTEEILEKSFSQFGKLERVKKLKDYAFIHFDERDGAVKAMEEMNGKDLEGENIEIVFAKPPDQKRKERKAQRQAAKNQMYDDYYYYGPPHMPPPTRGRGRGGRGGYGYPPDYYGYEDYYDYYGYDYHNYRGGYEDPYYGYEDFQVGARGRGGRGARGAAPSRGRGAAPPRGRAGYSQRGGPGSARGVRGARGGAQQQRGRGVRGARGGRGGNVGGKRKADGYNQPDTKRRQTNNQNWGSQPIAQQPLQGGDHSGNYGYKSENQEFYQDTFGQQWK

By UniProt entry, the sequences of proteins in these tests, tags left out. Where a name states a change or a piece, a line headed by the entry shows the natural chain unless it says otherwise.
UniProt Q61701, whole entry: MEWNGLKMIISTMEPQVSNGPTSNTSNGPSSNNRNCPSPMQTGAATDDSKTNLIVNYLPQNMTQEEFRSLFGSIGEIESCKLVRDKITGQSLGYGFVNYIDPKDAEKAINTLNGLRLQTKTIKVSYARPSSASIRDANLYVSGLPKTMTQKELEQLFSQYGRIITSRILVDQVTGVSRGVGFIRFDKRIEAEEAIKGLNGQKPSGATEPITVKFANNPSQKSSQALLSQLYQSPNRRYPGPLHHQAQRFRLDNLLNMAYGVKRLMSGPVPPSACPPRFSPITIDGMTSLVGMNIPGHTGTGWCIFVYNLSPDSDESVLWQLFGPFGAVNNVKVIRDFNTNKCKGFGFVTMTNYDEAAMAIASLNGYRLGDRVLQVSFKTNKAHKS

These are yes or no findings as the source states them, for the method shown. Binding seen in cells or lysates may run through a third protein. A yes stands for co-enrichment or nearness to the bait. Other partners may have been found.

For the first assay, the target named is FLAG-HA-tagged HuD (UniProt Q61701). The assay can be described thus: affinity purification with mass spectrometry.
Take PCBP2 (from UniProt Q61990 1-362): the binding entry was “binds”. On the same count and under the same terms, the result for IGF2BP3 (from UniProt Q9CPN8 1-579) reads “binds”; that for hnRNPC (from UniProt Q9Z204 1-313), “binds”; that for MATR3 (from UniProt Q8K310 1-846), “binds”.

On to TDP-43 (from UniProt Q921F2 1-414), for which the binding entry was “binds”.

The next assay has the same target. The assay can be described thus: affinity purification with mass spectrometry. This is another data set of the same source.
In the case of B1, the binding result was “binds”.

The record behind these values is doi:10.1101/2025.09.05.674581.
